Results as given in the supplement of paper PMC5949888.
Most values lie at the floor of the assay. Slopes are relative: functional sequences can read slightly below zero.

What follows are substances tested on Saccharomyces cerevisiae PS128 hsf1 delta, HSF1(1-493) fusion (assay: growth estimate (transactivation domain function in HSF1 fusion, heat-shock survival) (a.u. (slope of normalised read count over time)); higher = stronger growth at 37°C, i.e. more transactivation activity). Details: library: random library.
LKFFSHRQERLLCPWHSKND showed a growth estimate of less than -0.25.
LKG was tested, and the growth estimate was less than -0.25.
LKGGRVASLRRKLEVPIWGC showed a growth estimate of less than -0.25.
LKGHLG showed a growth estimate of less than -0.25.
LKK gave a growth estimate of less than -0.25.
LKKPPVRGA was tested, and the growth estimate was less than -0.25.
With LKL the growth estimate was less than -0.25.
Substance LKLEANGVLSSIIIAPDRPN has a growth estimate of -0.248.
For LKNACRGCFRAAWTGSIRQM, the growth estimate was less than -0.25.
LKPPCITGGGNLCRIDIALA showed a growth estimate of less than -0.25.
In the case of LKQLMRLMECLRCGVGREAP, the growth estimate is reported as less than -0.25.
LKRLH showed a growth estimate of less than -0.25.
LKRQGFGV was tested, and the growth estimate was less than -0.25.
LKRVADFNACVKGWDEQVRG was tested, and the growth estimate was less than -0.25.
LKRYCSPGGLGRNSTIMIVM gave a growth estimate of less than -0.25.
LKS was tested, and the growth estimate was less than -0.25.
LKSG was tested, and the growth estimate was less than -0.25.
Work on LKSGQARLSRFSRCIGCPHP yielded a growth estimate of less than -0.25.
In the case of LKSRRSHRKENAGGQRPLLK, the growth estimate is reported as less than -0.25.
LKVLIVSSI gave a growth estimate of less than -0.25.
For LLAGHRVKSHPKSRLLSEGG, the growth estimate was less than -0.25.
For LLAYKQGDLRVAYRVHAT, the growth estimate was less than -0.25.
In the case of LLDQDGKAVWSAVRYAETHH, the growth estimate is reported as less than -0.25.
With LLDTCRIHKLRGI the growth estimate was less than -0.25.
In the case of LLEDDYN, the growth estimate is reported as less than -0.25.
LLELKATSNTKSIYVRRGDL showed a growth estimate of less than -0.25.
For LLEPMPRDGKGRVPDSCTQA, the growth estimate was less than -0.25.
LLERIQPDMNTSSN showed a growth estimate of less than -0.25.
In the case of LLERQLREWLEVKVRRTNWV, the growth estimate is reported as less than -0.25.
For LLETSYEE, the growth estimate was less than -0.25.
Work on LLGFCWGGGMPGIPIVRIKG yielded a growth estimate of less than -0.25.
LLGGLSVFQSGGYQSGPVQI showed a growth estimate of less than -0.25.
LLGLNLPRLRGRLLFPYHIM showed a growth estimate of less than -0.25.
LLGPSLW gave a growth estimate of less than -0.25.
Substance LLGQA has a growth estimate of less than -0.25.
LLGSR was tested, and the growth estimate was less than -0.25.
In the case of LLGTHDRGARRILRYRSPVE, the growth estimate is reported as -0.243.
In the case of LLGVSR, the growth estimate is reported as -0.246.
LLHACLSI gave a growth estimate of less than -0.25.
With LLHPSWTTHGGPQAHPVEGQ the growth estimate was less than -0.25.
LLIFLSGLHSNSA gave a growth estimate of less than -0.25.
For LLILDGRVVWSAPTVKVFAV, the growth estimate was less than -0.25.
Work on LLKFVCSKAYNASMWQPSGQ yielded a growth estimate of less than -0.25.
With LLL the growth estimate was less than -0.25.
LLLAFHI gave a growth estimate of less than -0.25.
For LLLGFLRSYWCHTTVHRTRR, the growth estimate was less than -0.25.
Work on LLLGPLEVAR yielded a growth estimate of less than -0.25.
With LLLPSHLISNWHPLG the growth estimate was less than -0.25.
LLMGS showed a growth estimate of less than -0.25.
With LLMHGQLRIGSRLYNQEEGG the growth estimate was less than -0.25.
LLMHL was tested, and the growth estimate was less than -0.25.
LLNGVFGLNAASQ showed a growth estimate of less than -0.25.
LLNYLS showed a growth estimate of less than -0.25.
LLPRFIISVLGASLTLQAQC showed a growth estimate of less than -0.25.
Substance LLPSGSFARVSSRYPSRPCA has a growth estimate of less than -0.25.
LLPSLAAQLEGASARSGRNA showed a growth estimate of less than -0.25.
Substance LLPSMGERKSVGLLTILDWP has a growth estimate of less than -0.25.
Work on LLPVFVFFGKGWLDRVGISS yielded a growth estimate of less than -0.25.
LLQVFDRG gave a growth estimate of less than -0.25.
In the case of LLQVGTSFVQARI, the growth estimate is reported as less than -0.25.
LLRELAETTRYCVGVRIRYY gave a growth estimate of less than -0.25.
In the case of LLRFILDGCYGLAHLSAKVS, the growth estimate is reported as less than -0.25.
For LLRGDLENRDTALTEDISVT, the growth estimate was less than -0.25.
With LLRI the growth estimate was less than -0.25.
In the case of LLRKRGMGGS, the growth estimate is reported as less than -0.25.
For LLRSISRWGRT, the growth estimate was less than -0.25.
LLSAGRA was tested, and the growth estimate was less than -0.25.
Substance LLSALGRSYRLVENLAR has a growth estimate of less than -0.25.
For LLSGLRSELKGATASDIRFS, the growth estimate was less than -0.25.
LLSIRENQNWMAAIVTGSVT showed a growth estimate of less than -0.25.
Work on LLSNRG yielded a growth estimate of less than -0.25.
Work on LLSRGKECTAGLV yielded a growth estimate of less than -0.25.
Substance LLSRLSLDSVDQRLQLHLVR has a growth estimate of less than -0.25.
LLSRRAGPRSSNDS gave a growth estimate of less than -0.25.
In the case of LLSSADV, the growth estimate is reported as -0.228.
LLTASGEVKV gave a growth estimate of less than -0.25.
LLTLPGSNSGQGALTGNSEV gave a growth estimate of -0.248.
Work on LLTPAVEFSHRNPHHWVPAT yielded a growth estimate of less than -0.25.
LLTQGESRMGASNIS showed a growth estimate of less than -0.25.
LLVASDLGDLARVEDTQSTD was tested, and the growth estimate was less than -0.25.
LLVASLGDVRVITGFMCPRC gave a growth estimate of less than -0.25.
With LLVFCTRLERVPHWIPI the growth estimate was less than -0.25.
Work on LLVPSGQCHGFRRLSTSRQV yielded a growth estimate of less than -0.25.
Substance LLVSGK has a growth estimate of less than -0.25.
In the case of LLVTTTRHQL, the growth estimate is reported as less than -0.25.
Work on LLWNNQGVVLGCQRDNFEH yielded a growth estimate of less than -0.25.
For LLWRCVVVGIVVTIVPLGAG, the growth estimate was less than -0.25.
For LLWSVPYSGLGLTASTSAYS, the growth estimate was less than -0.25.
LLWVEEAQLGRCDRAKCLVH gave a growth estimate of less than -0.251.
With LLWWGRDRSAPITRCRLSCH the growth estimate was -0.242.
LLYAQATWRAASIVSYVPWT showed a growth estimate of less than -0.25.
Substance LLYGLPGPSVQNPDPKRCRT has a growth estimate of less than -0.25.
LLYH was tested, and the growth estimate was less than -0.25.
LLYPTGIVCKKGTCFYSQRM showed a growth estimate of less than -0.25.
LMAAGLYLRDRNDLEEPLTP gave a growth estimate of less than -0.25.
LME was tested, and the growth estimate was less than -0.25.
LMGRPGELLVHINLDVVPST gave a growth estimate of less than -0.25.
For LMHLSVALVDLLLLNV, the growth estimate was less than -0.25.
LMKGKRAATPRVTV showed a growth estimate of less than -0.25.
